Data as given in PubChem BioAssay AID1508588 (Peter MacCallum Cancer Centre, 2020)

- Test: 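Knock-downs boosting vemurafenib effects on melanoma cell growth or lactate release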 (primary screen)
- Cell system: human WM266.4 melanoma cells (BRAF V600 mutant)
- Reagent: siRNA pool against human genes, 40 nM
- Duration: 96 h from transfection to read-out
- Conditions: vemurafenib 300 nM (about IC25), added 48 h after transfection, for 48 h; comparison arm got DMSO vehicle only
- Measured: 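Cell gain (DAPI nuclei at end minus before drug, mean of two replicates) and medium lactate by absorbance per cell, both as ratio to non-targeting siRNA, also grouped into fold-change classes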
- Reading the numbers: cell gain with vemurafenib: higher = more cell gain than with non-targeting siRNA; lactate per cell with vemurafenib: higher = more lactate made per cell
- Call rule: 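Enhancement is called by pairing each knock-down's vehicle-arm and drug-arm fold-change classes for viability or glycolysis; which class combinations qualify is not given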
- Meaning of the calls: active = enhances vemurafenib effect; inactive = no enhancement seen
In all, the deposit lists about 18,000 reagents; shown is a part drawn at random. 790 of them (4.4%) count as active. 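Calls rest on a combination of fold-change classes in drug and vehicle arms, not all shown here.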 Entries without a mark were called inactive. Reagents against one gene are numbered here.

ZSCAN5A — cell gain with vemurafenib = 0.62; lactate per cell with vemurafenib = 0.91
ALG13 #1 — cell gain with vemurafenib = 0.48; lactate per cell with vemurafenib = 1.38
ALG13 #2 — cell gain with vemurafenib = 0.41; lactate per cell with vemurafenib = 0.86
ZNF512 — cell gain with vemurafenib = 0.64; lactate per cell with vemurafenib = 1.05
KLHL12 — cell gain with vemurafenib = 0.54; lactate per cell with vemurafenib = 0.71
PRL — cell gain with vemurafenib = 0.79; lactate per cell with vemurafenib = 0.59
ACKR2 — cell gain with vemurafenib = 0.61; lactate per cell with vemurafenib = 1.26
STPG1 — cell gain with vemurafenib = 0.27; lactate per cell with vemurafenib = 2.06
UTP18 — cell gain with vemurafenib = 0.46; lactate per cell with vemurafenib = 0.87
LHFPL5 — cell gain with vemurafenib = 0.45; lactate per cell with vemurafenib = 0.52
UXS1 — cell gain with vemurafenib = 0.83; lactate per cell with vemurafenib = 0.84
TMEM62 — cell gain with vemurafenib = 0.41; lactate per cell with vemurafenib = 1.11
GAD2 — cell gain with vemurafenib = 0.34 (active); lactate per cell with vemurafenib = 0.66
PBX4 — cell gain with vemurafenib = 0.69; lactate per cell with vemurafenib = 0.72
SRSF1 — cell gain with vemurafenib = -0.05; lactate per cell with vemurafenib = 3.43
RFX7 — cell gain with vemurafenib = 0.78; lactate per cell with vemurafenib = 0.5
BTF3L4 — cell gain with vemurafenib = 0.97; lactate per cell with vemurafenib = 0.57
RNF112 — cell gain with vemurafenib = 1.1; lactate per cell with vemurafenib = 0.75
EGFL8 — cell gain with vemurafenib = 0.83; lactate per cell with vemurafenib = 0.98
HDAC11 — cell gain with vemurafenib = 0.7; lactate per cell with vemurafenib = 0.88
CPA6 — cell gain with vemurafenib = 0.86; lactate per cell with vemurafenib = 1.16
RIPK2 — cell gain with vemurafenib = 0.34; lactate per cell with vemurafenib = 1.07
SNX1 — cell gain with vemurafenib = 0.43; lactate per cell with vemurafenib = 1.07
FGF5 — cell gain with vemurafenib = 0.91; lactate per cell with vemurafenib = 0.8
SLC25A38 — cell gain with vemurafenib = 0.94; lactate per cell with vemurafenib = 1.11
FUT9 — cell gain with vemurafenib = 1.04; lactate per cell with vemurafenib = 0.82
TYW2 — cell gain with vemurafenib = 0.95; lactate per cell with vemurafenib = 0.8
